Data from US12331026B2 (NiKang Therapeutics, Inc., priority 2022, dated 2025).
Structures were worked out from names or drawings and are uncertain.

Target: CDK2 (Homo sapiens, UniProt P24941)
Test: Phospho-RB measurement in OVCAR3 cells (HTRF phospho-RB S807/811)
Settings: read-out: pRb (uM), phosphorylation of RB protein at S807/811, HTRF, 24 h compound treatment, 0.3 to 10,000 nM
Protocol: The ability of compounds of Formula (I) to inhibit CDK2 was determined in OVCAR3 cells. Phosphorylation of RB protein at S807/811 were measured using HTRF phospho-RB cellular kits (Cat #64RBS807PEG) from Cisbio.
On Day 1, OVCAR3 cells were seeded into 96-well tissue-culture treated plates at 20,000 cells/well in 200 μL and incubated overnight at 37° C. in CO2 atmosphere. On Day 2, the cells were treated with test compounds at concentrations from 0.3 to 10,000 nM using HP D300 digital dispenser. Twenty-four hours after compound treatment, cell culture media was removed by flicking the plate and tapping the plate against clean paper towel. Immediately 30 μL 1× lysis buffer was supplemented from the kit and the plate was incubated at room temperature on shaker for 30 min. After homogenization by pipetting up and down, 8 μL cell lysate from 96-well cell culture plate was transferred to 384-well small volume white detection plate. 2 μL premixed detection solution was added and the plate was covered with sealer. To prepare the detection solution, d2 conjugated-phospho-RB antibody and Eu-cryptate conjugated phosphor-RB antibody were diluted into detection buffer following manufacturer's instruction.
Detection plates were incubated for 4 h at room temperature and read on ClarioStar (BMG Labtech) in TR-FRET mode ([…]). The TR-FRET ratio (665 nM1/620 nM) was plotted against the compound concentration and normalized to DMSO controls. Half maximal inhibition concentration (IC50) values are calculated with a four-parameter logistic fit using GraphPad Prism (version 8; La Jolla, CA).

Compared with `O=S1(=O)CC2(CC(Nc3nccc(-c4sc(N5C6CCC5CC6)nc4-c4cccc(NS(=O)(=O)c5c(F)cccc5F)c4F)n3)C2)C1`, `CC1CN(C2CC(F)(F)C2)CC(C)N1c1nc(-c2cccc(NS(=O)(=O)c3c(F)cccc3F)c2F)c(-c2ccnc(NC3CC4(C3)CS(=O)(=O)C4)n2)s1` (stereo not drawn) is 1.5-fold higher in IC50: 0.11 µM for the first, 0.17 µM for the second. The first is the more potent here.

Work on `CN1CC2CCC(C1)N2c1nc(-c2cccc(NS(=O)(=O)c3c(F)cccc3C(F)(F)F)c2F)c(-c2ccnc(NC3C4CS(=O)(=O)CC43)n2)s1` (stereo not drawn) yielded an IC50 of 0.04 µM.
